Measurements reported in PMC7031342.

Amino acid sequences for entries named in this document (tags omitted).
UniProt Q00765: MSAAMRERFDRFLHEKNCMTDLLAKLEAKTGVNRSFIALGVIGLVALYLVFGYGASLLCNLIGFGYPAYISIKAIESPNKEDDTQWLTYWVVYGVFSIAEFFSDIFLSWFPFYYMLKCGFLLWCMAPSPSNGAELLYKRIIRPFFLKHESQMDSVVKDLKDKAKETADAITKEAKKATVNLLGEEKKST
UniProt O95197: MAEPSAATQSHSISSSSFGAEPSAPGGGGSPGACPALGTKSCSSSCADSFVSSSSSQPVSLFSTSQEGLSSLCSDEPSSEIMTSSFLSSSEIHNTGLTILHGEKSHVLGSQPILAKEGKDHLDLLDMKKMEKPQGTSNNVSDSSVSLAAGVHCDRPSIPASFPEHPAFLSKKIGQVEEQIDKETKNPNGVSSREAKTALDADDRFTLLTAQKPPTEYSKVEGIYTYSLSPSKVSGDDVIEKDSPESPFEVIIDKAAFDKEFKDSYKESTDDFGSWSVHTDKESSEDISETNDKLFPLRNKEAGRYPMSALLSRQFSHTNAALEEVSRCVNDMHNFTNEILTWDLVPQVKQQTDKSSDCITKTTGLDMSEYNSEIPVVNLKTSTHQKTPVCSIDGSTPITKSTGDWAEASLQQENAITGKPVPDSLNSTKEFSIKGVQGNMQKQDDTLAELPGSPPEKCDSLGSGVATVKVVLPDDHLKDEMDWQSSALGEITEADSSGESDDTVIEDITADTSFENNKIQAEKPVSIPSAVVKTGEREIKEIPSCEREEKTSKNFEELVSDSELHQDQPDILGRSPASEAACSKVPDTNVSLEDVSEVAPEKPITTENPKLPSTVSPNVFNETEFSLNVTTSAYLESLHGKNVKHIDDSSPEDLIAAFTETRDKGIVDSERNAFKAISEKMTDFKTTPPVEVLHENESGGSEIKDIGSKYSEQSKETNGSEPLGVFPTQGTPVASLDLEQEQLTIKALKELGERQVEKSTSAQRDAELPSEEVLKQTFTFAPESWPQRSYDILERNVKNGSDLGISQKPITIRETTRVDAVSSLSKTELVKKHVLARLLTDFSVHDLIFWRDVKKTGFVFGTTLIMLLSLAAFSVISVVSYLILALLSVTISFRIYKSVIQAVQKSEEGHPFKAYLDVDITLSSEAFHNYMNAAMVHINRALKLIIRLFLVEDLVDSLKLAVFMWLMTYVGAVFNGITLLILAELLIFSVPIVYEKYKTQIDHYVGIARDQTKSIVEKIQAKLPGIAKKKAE
UniProt P04406: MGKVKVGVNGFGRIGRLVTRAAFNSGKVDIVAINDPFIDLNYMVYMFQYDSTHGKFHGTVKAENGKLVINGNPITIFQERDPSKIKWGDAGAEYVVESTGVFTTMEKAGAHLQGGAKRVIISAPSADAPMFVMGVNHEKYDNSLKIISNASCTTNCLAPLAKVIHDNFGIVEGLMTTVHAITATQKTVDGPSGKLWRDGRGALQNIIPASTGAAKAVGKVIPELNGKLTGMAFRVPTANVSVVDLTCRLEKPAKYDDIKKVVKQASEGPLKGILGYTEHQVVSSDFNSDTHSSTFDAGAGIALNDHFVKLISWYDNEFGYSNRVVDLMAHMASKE
UniProt P60660: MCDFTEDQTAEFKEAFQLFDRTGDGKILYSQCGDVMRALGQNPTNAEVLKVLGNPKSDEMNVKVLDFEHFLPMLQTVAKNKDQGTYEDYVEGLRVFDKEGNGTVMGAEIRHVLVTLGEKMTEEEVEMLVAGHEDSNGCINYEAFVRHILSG
UniProt Q07065: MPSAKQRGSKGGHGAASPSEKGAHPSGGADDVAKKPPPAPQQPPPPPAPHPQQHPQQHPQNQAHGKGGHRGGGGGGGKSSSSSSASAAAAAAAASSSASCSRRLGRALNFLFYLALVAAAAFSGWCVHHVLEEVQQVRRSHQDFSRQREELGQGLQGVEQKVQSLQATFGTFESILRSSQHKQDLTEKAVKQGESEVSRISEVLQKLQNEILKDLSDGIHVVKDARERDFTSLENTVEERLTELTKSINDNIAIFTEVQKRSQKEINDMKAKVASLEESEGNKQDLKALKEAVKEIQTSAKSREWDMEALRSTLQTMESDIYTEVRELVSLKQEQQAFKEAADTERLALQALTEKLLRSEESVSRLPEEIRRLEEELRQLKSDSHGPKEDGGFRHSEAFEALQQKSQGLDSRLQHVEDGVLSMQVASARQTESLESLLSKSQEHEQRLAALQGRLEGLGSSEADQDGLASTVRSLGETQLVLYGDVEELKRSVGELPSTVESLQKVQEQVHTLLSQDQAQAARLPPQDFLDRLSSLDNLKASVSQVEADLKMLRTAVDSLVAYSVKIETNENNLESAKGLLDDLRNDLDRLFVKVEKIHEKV

Each substance was assayed against CnVA-tagged (StrepII-6xHis, 3xFlag) REEP5 (human) (UniProt Q00765) (assay: affinity purification with mass spectrometry; nickel-His purification of CnVA-REEP5 from transfected HEK293 cells against untransfected controls; Q Exactive Plus, iBAQ).
With RTN3 (from UniProt O95197 1-1032) the binding was “binds”. In the case of GAPDH (from UniProt P04406 1-335), the binding is reported as “no binding”. MYL6 (from UniProt P60660 1-151) was tested, and the binding was “no binding”. For “CKAP4 (HEK293) (from UniProt Q07065 1-602)”, the binding was “binds”.

Results are given in words; binding and its absence hold for the method and conditions named. Binding seen in cells or lysates may run through a third protein. These calls come from enrichment with a bait or labelling near it, and not all partners need be listed. A no says only that the protein was not detected with the bait.
